These are yes or no findings as the source states them, for the method shown. In cells and extracts the contact can be indirect. For some assays here: Binding calls can cover weak binding; strength is not graded here. For some assays here: Sequences can lack the tags named with a protein.
T1: GST-Bag101 (full length) (S. pombe) (UniProt O60125)
T1 sequence: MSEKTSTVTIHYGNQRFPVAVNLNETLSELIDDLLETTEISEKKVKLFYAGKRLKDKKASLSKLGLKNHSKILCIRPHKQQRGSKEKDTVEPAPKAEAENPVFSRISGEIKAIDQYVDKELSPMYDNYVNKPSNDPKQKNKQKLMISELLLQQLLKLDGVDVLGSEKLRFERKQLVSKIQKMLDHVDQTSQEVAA

T2: GST-Bag101 BAG domain (78-190) (S. pombe) (UniProt O60125)
T2 sequence: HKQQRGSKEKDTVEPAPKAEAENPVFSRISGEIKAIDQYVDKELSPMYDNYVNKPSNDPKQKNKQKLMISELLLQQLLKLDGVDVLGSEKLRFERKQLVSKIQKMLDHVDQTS

T3: GST-Bag102 BAG domain (122-206) (S. pombe) (UniProt O59739)
T3 sequence: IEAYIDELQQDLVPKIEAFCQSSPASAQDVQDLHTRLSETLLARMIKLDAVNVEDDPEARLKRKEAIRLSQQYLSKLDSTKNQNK

T4: GST-Bag102 ΔTM (31-206) (S. pombe) (UniProt O59739)
T4 sequence: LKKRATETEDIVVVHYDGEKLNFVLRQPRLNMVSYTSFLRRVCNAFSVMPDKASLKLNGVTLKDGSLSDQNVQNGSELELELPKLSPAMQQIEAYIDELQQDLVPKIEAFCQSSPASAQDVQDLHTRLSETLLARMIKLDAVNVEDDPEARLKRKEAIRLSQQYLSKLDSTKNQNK

B1: Spc7-3HA (wild type) (protein, UniProt O59757 1-1364)
chain: MPTSPRRNSIATTDNVIGRNKSRKRPHSLGGPGALQELKEHTNPAKGILKSYSSFSVDPAFTGDEDFNDIHTQINNTVIGISSNVMAASKRLQMEDLQQLSRETSRKSLNRRVSFASHARVRWYPKDHQSDSEKSTSNHSTPERTFASDAKNHSPKGPTTTSFSRNETQSSPHSHSASIISDGSDMDIASPIRSTESDMVSEALNAGHPPPSLYPENDDLSIQNPTKALPEAEKALDVHDATREQVNDREETNMDLTIQFQEADSFLSHSESIKGLSSSEQGTVYSLKASHDPSNQTQLSSPNKSSSPTSIEISDFSKNNENHDQSENKEEEEDMMLTRPIEIPQHFSPIARPLTSQEAIVDMDITSNNINLSPVSHFSNGLDLQNLEEAPMNLTRPINANPHLTNHSPNDLTNGEEEMDTTSAFNIENSHLTLLSPIRPSSRSMEEQIMDLTQPISSTNAPTHLNEDDLNQFTSNISSSSKPRKDNNKTANSSKPIPDSEDFMDITRPFNILSPSKEALSEEQPMELTSTVFPCENSTSHLEVEEAAMDETVAFQIRGNNVELPSADKENAEREEIPSYSDKSENFNTTSFTNHERSPNGNNNLKFSKDPNSSSPSRHVVATPTDKLGTRKRRLRYSTSSFDQSTLRRNRLATIRNARKSISTLNDRELLPVNFFEKKVNSGLYKSVERSENYRLGATPLTAEKPFTTEKPLSSLPEEVSRQPTDDKGEQVSNADVDSGLSKTERLTIQQTNEIKHVPTNTTSSVKLPQQPSNEDEKERITTADYADSTSLERLESQEPNRNELVQVGSSNAGNTTSVGMNEHEKSPVKLSKGVSNVDTSLGASTINTNILNQDSGPNEEIPVGNEPEFDTMPTLPNVEPISLSDFLKMTGIEFLDNLTIAKRRETLLPNAEENKKCSIQELLESFYIQFPLLELYKFSCQQLQDYIAEGKDFVTKIEEETLKENPLLFYEYRKASSDMRVLMDSQFLMMKTFARLQAKGDWYEWREGLMQGIKHELNLNLTGMQRSLTHLMDVANVIHPYAQEIQERYNGSITTVQTLKKQKEFANQYDSTLLAQAQEKLEKLKVEVERRRRLLSEKEERRKELAIKIEQVTNSCSDLELRTNAEQDFYAKNQDFEFDEIKRYEEQLLNLKNELGWTIVSLTAGGIKLATNNTALSPYSAEVTVEILRQNFQVNVDIACKFPNESNACSSNVLEHVASSFSKWHSKVFSRNLRLLKKYLNDVSICWEQIVYLVQDFQRLWYHWPFLSVENDDKSIIINVELYLRSVSSKVKVVFGLPIDTIYQTTEVGKFYASTSVAVKQMYAESEGDSYVSEVLNTLSEVVHCTSTYALSSACLTVWNKYS

Assays:
[1] = target: T1, GST-Bag101 (full length) (S. pombe); assay: pull-down; GST fusion proteins on glutathione Sepharose 4 beads (1 mg/mL, 20 µL beads) in 1 mL cleared extract of S. pombe expressing Pad1/Rpn11 with a Protein A ZZ-tag; buffer A (25 mM Tris/HCl pH 7.5, 50 mM NaCl, 2 mM MgCl2, 5 mM ATP, 10% glycerol, 0.1% Triton X-100, 2 mM DTT); overnight at 4°C; blots for Hsp70, the ZZ-tag and 20S α subunits; only the target purified
[2] = target: T2, GST-Bag101 BAG domain (78-190) (S. pombe); assay: as above
[3] = target: T3, GST-Bag102 BAG domain (122-206) (S. pombe); assay: as above
[4] = target: T4, GST-Bag102 ΔTM (31-206) (S. pombe); assay: as above
[5] = target: Flag-tagged San1 (S. pombe); assay: co-IP; V5-tagged Ubr11 or Flag-tagged San1 precipitated with antibodies to V5 or Flag from S. pombe cells treated with Bortezomib; control antibody; blot for HA (Spc7)

Molecule	binding [1]	binding [2]	binding [3]	binding [4]	binding [5]
Hsp70 (S. pombe nuclear/cytosolic Hsp70 type chaperones)	binds	binds	binds	binds	–
B1	–	–	–	–	no binding

— PMC3907333
